Laboratory results: PubChem BioAssay AID1259425 (University of Nebraska Medical Center, 2018)
In all, the deposit lists about 14,000 reagents; below is a random part of them. Not all columns of the deposit are shown. Reagent sequences are not shown. Not given: the time to read-out.

Test: 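Compare each knockdown with KSR1 silencing using changes in marker transcripts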 (primary screen)
Cells: HCT116 human colon cancer cells
Reagents: siRNA pool against human genes, 50 nM siRNA
Measurement: 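After 50 nM siRNA pool, branched-DNA assay measures six marker transcripts per well, minus blank, normalised to the geometric mean of two housekeeping transcripts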
Scale: BNIP3L mRNA: higher = more BNIP3L transcript after knockdown; NDRG1 mRNA: higher = more NDRG1 transcript after knockdown

MRPL38 (mitochondrial ribosomal protein L38) gave BNIP3L mRNA, set 1 = 0.15; NDRG1 mRNA, set 1 = 0.101. Knock-down of VPS33B (VPS33B late endosome and lysosome associated) gave: BNIP3L mRNA, set 1 = 0.161; NDRG1 mRNA, set 1 = 0.25. With knock-down of NFYA (nuclear transcription factor Y subunit alpha) the results were BNIP3L mRNA, set 1 = 0.214; NDRG1 mRNA, set 1 = 0.132. Against PSD3 (pleckstrin and Sec7 domain containing 3), the values are BNIP3L mRNA, set 1 = 0.0912; NDRG1 mRNA, set 1 = 0.337. IKZF1 (IKAROS family zinc finger 1) showed BNIP3L mRNA, set 1 = 0.0979; NDRG1 mRNA, set 1 = 0.258. After knock-down of LINC03124 (long independently transcribed non-coding RNA 3124), the record shows BNIP3L mRNA, set 1 = 0.124; NDRG1 mRNA, set 1 = 0.348.

With knock-down of IKZF3 (IKAROS family zinc finger 3), the screen gave BNIP3L mRNA, set 1 = 0.0897; NDRG1 mRNA, set 1 = 0.197. After knock-down of PSME3IP1 (proteasome activator subunit 3 interacting protein 1) the results were BNIP3L mRNA, set 1 = 0.103; NDRG1 mRNA, set 1 = 0.174. For PIGL (phosphatidylinositol glycan anchor biosynthesis class L), the values are BNIP3L mRNA, set 1 = 0.16; NDRG1 mRNA, set 1 = 0.14. After knock-down of FGFRL1 (fibroblast growth factor receptor like 1), the record shows BNIP3L mRNA, set 1 = 0.0752; NDRG1 mRNA, set 1 = 0.161.

2 entries from above, showing only “NDRG1 mRNA, set 1”.
IKZF1 (IKAROS family zinc finger 1): 0.258
LINC03124 (long independently transcribed non-coding RNA 3124): 0.348

Additional records follow:
RPS21 (ribosomal protein S21) showed BNIP3L mRNA, set 1 = 0.0737; NDRG1 mRNA, set 1 = 0.098. Knock-down of LLGL1 (LLGL scribble cell polarity complex component 1) resulted in: BNIP3L mRNA, set 1 = 0.151; NDRG1 mRNA, set 1 = 0.211. With knock-down of RSBN1 (round spermatid basic protein 1), the screen gave BNIP3L mRNA, set 1 = 0.0758; NDRG1 mRNA, set 1 = 0.296. After knock-down of FEZF2 (FEZ family zinc finger 2), the screen gave BNIP3L mRNA, set 1 = 0.141; NDRG1 mRNA, set 1 = 0.0662. Knock-down of EMILIN2 (elastin microfibril interfacer 2) gave: BNIP3L mRNA, set 1 = 0.132; NDRG1 mRNA, set 1 = 0.385. After knock-down of PLPPR4 (phospholipid phosphatase related 4), the screen gave BNIP3L mRNA, set 1 = 0.193; NDRG1 mRNA, set 1 = 0.133.

With knock-down of PFKM (phosphofructokinase, muscle), the record shows BNIP3L mRNA, set 1 = 0.103; NDRG1 mRNA, set 1 = 0.295. After knock-down of PPP3CB (protein phosphatase 3 catalytic subunit beta) the results were BNIP3L mRNA, set 1 = 0.026; NDRG1 mRNA, set 1 = 0.0828. SYCP1 (synaptonemal complex protein 1) gave BNIP3L mRNA, set 1 = 0.131; NDRG1 mRNA, set 1 = 0.106.
